PubChem BioAssay AID652243 | Drosophila RNAi Screening Center, 2013
Assay: 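Fly genes required for human androgen receptor driven transcription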 (primary screen). System: Drosophila S2R+ cells. Reagents: long dsRNA against Drosophila genes. Time to read-out: 72 h (48 h, then 24 h hormone). Conditions: synthetic androgen R1881 at 10 nM for 24 h. Detection: 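Per-well raw luminescence of the androgen-driven firefly reporter and of the Renilla control, two replicates each, without normalisation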. Direction: firefly reporter light: higher = more light from androgen-responsive reporter; Renilla control light: higher = more constitutive control signal (cell number, transfection). Active means: 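Across duplicate plates, a knock-down whose log firefly/Renilla ratio shifted a set fold down or up from the GFP/LacZ control mean was a hit; the downward cut appears as both 1.5 and 3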. Calls: active = hit: reporter lowered or raised; inactive = no hit.
The deposit covers about 24,000 reagents; shown is an unselected part of those with a known target gene and a result. Of all reagents, 246 (1%) got an active call. 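Plates not normalised; calls are printed but the firefly/Renilla ratio behind them is not deposited; fold cut for lowering reported inconsistently.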 Raw values vary from plate to plate and are shown uncorrected. Reagents against one gene are numbered here. A plus sign joins genes that one reagent is predicted to hit. No sequences are given here. Not stated in the record: the amount of reagent.

CG31798 #1: firefly reporter light, replicate 1 = 3.07e5; firefly reporter light, replicate 2 = 3.90e5; Renilla control light, replicate 1 = 7.80e5; Renilla control light, replicate 2 = 8.59e5; outcome = inactive
CG31798 #2: firefly reporter light, replicate 1 = 6.26e5; firefly reporter light, replicate 2 = 3.34e5; Renilla control light, replicate 1 = 1.77e6; Renilla control light, replicate 2 = 7.13e5; outcome = inactive
Or42a (Odorant receptor 42a): firefly reporter light, replicate 1 = 1.92e5; firefly reporter light, replicate 2 = 1.41e5; Renilla control light, replicate 1 = 1.45e6; Renilla control light, replicate 2 = 7.90e5; outcome = inactive
S (Star): firefly reporter light, replicate 1 = 2.03e5; firefly reporter light, replicate 2 = 1.23e5; Renilla control light, replicate 1 = 7.62e5; Renilla control light, replicate 2 = 3.94e5; outcome = inactive
Osi15 (Osiris 15): firefly reporter light, replicate 1 = 65146; firefly reporter light, replicate 2 = 69673; Renilla control light, replicate 1 = 1.68e6; Renilla control light, replicate 2 = 1.03e6; outcome = inactive
CG34220: firefly reporter light, replicate 1 = 7.10e5; firefly reporter light, replicate 2 = 6.58e5; Renilla control light, replicate 1 = 1.79e6; Renilla control light, replicate 2 = 1.95e6; outcome = inactive
CG34308: firefly reporter light, replicate 1 = 7.64e5; firefly reporter light, replicate 2 = 7.86e5; Renilla control light, replicate 1 = 2.33e6; Renilla control light, replicate 2 = 2.43e6; outcome = inactive
Prtl99C (Protamine-like 99C): firefly reporter light, replicate 1 = 1.12e5; firefly reporter light, replicate 2 = 1.34e5; Renilla control light, replicate 1 = 1.57e6; Renilla control light, replicate 2 = 1.96e6; outcome = inactive
Usp12-46 (Ubiquitin-specific protease 12/46): firefly reporter light, replicate 1 = 1.60e5; firefly reporter light, replicate 2 = 1.44e5; Renilla control light, replicate 1 = 2.38e6; Renilla control light, replicate 2 = 2.10e6; outcome = inactive
Slc25A46b: firefly reporter light, replicate 1 = 1.33e5; firefly reporter light, replicate 2 = 1.33e5; Renilla control light, replicate 1 = 1.16e6; Renilla control light, replicate 2 = 1.70e6; outcome = inactive
CG32110: firefly reporter light, replicate 1 = 1.64e5; firefly reporter light, replicate 2 = 2.10e5; Renilla control light, replicate 1 = 3.59e5; Renilla control light, replicate 2 = 4.94e5; outcome = inactive
barr (barren): firefly reporter light, replicate 1 = 1.31e5; firefly reporter light, replicate 2 = 1.12e5; Renilla control light, replicate 1 = 1.01e6; Renilla control light, replicate 2 = 5.46e5; outcome = inactive
CG13615 #1: firefly reporter light, replicate 1 = 1.52e5; firefly reporter light, replicate 2 = 1.93e5; Renilla control light, replicate 1 = 2.41e6; Renilla control light, replicate 2 = 2.80e6; outcome = inactive
CG13615 #2: firefly reporter light, replicate 1 = 1.35e6; firefly reporter light, replicate 2 = 9.52e5; Renilla control light, replicate 1 = 1.49e6; Renilla control light, replicate 2 = 1.09e6; outcome = inactive
Top3beta (Topoisomerase 3beta): firefly reporter light, replicate 1 = 69973; firefly reporter light, replicate 2 = 55729; Renilla control light, replicate 1 = 4.93e5; Renilla control light, replicate 2 = 3.65e5; outcome = inactive
Lrch (Leucine-rich-repeats and calponin homology domain protein) #1: firefly reporter light, replicate 1 = 5.61e5; firefly reporter light, replicate 2 = 8.57e5; Renilla control light, replicate 1 = 1.84e6; Renilla control light, replicate 2 = 2.13e6; outcome = inactive
Lrch (Leucine-rich-repeats and calponin homology domain protein) #2: firefly reporter light, replicate 1 = 4.79e5; firefly reporter light, replicate 2 = 6.29e5; Renilla control light, replicate 1 = 1.20e6; Renilla control light, replicate 2 = 1.06e6; outcome = inactive
Ric (Ras-related protein interacting with calmodulin) #1: firefly reporter light, replicate 1 = 1.17e5; firefly reporter light, replicate 2 = 1.29e5; Renilla control light, replicate 1 = 1.44e6; Renilla control light, replicate 2 = 1.44e6; outcome = inactive
Ric (Ras-related protein interacting with calmodulin) #2: firefly reporter light, replicate 1 = 2.40e5; firefly reporter light, replicate 2 = 2.96e5; Renilla control light, replicate 1 = 5.45e5; Renilla control light, replicate 2 = 4.08e5; outcome = inactive
7SLRNA:CR42652 + 7SLRNA:CR32864: firefly reporter light, replicate 1 = 7.85e5; firefly reporter light, replicate 2 = 1.15e6; Renilla control light, replicate 1 = 5.84e5; Renilla control light, replicate 2 = 7.88e5; outcome = inactive
RabX6: firefly reporter light, replicate 1 = 1.28e5; firefly reporter light, replicate 2 = 1.18e5; Renilla control light, replicate 1 = 1.40e6; Renilla control light, replicate 2 = 1.48e6; outcome = inactive
